Results: patent US10457707B2, “Substituted urea depsipeptide analogs as activators of the CLPP endopeptidase” (priority 2015, dated 2019)
At least one compound was matched to its structure with a doubt left. *1 amine or outer side, *2 acyl side, *3 side chain or, on linkers, in order; H or OH if unused. Where a SMILES comes first, the peptide text is derived from it. Bridges are numbered along the chain shown (N, C = ends). [ ]: non-standard residue; d: D form. The star is where a group is joined. ξ: configuration not given here. NH(1,3-benzodioxol-5-yl) = c1cc2c(cc1N*)OCO2; Phe(3,5-F2) = N[C@@H](Cc1cc(F)cc(F)c1)C(=O)O; NH(4-OCF3-phenyl) = FC(F)(F)Oc1ccc(N*)cc1; Morpholine(3S-CO) = O=C(O)[C@@H]1COCCN1; Pro(4R-Me) = C[C@H]1CN[C@H](C(=O)O)C1; NH(3,4-Me2-phenyl) = Cc1ccc(N*)cc1C; ξPro(4S-Me) = C[C@@H]1CNC(C(=O)O)C1; Hyp = O=C(O)[C@@H]1C[C@@H](O)CN1; aThr = C[C@H](O)[C@H](N)C(=O)O; NMeA = CN[C@@H](C)C(=O)O; CO = O=C([*:1])[*:2]; ξP = O=C(O)C1CCCN1

These molecules were tested on Staphylococcus aureus, USA 300 wherein ClpP is inactivated (assay: Minimal inhibitory concentration assay).
Assay type: cell-based
Description: It is understood, that in various aspects, the MIC is determined by a microbroth dilution method. In a further aspect, the MIC is determined by a microbroth dilution method using Staphylococcus aureus, ATCC 29213. In a still further aspect, the MIC is determined by a microbroth dilution method using Staphylococcus aureus, NRS70. In a yet further aspect, the MIC is determined by a microbroth dilution method using Streptococcus pyogenes, ATCC 700294. In an even further aspect, the MIC is determined by a microbroth dilution method using Streptococcus pneumoniae, DAW27. In a still further aspect, the MIC is determined by a microbroth dilution method using Bacillus subtilis, ATCC 23857. In a yet further aspect, the MIC is determined by a microbroth dilution method using Enterococcus faecalis, ATCC 33186. In an even further aspect, the MIC is determined using Staphylococcus aureus, USA 300. In a still further aspect, the MIC is determined using Streptococcus pneumoniae, R6. In a further aspect, the MIC is determined using Staphylococcus aureus, USA 300 and compared to the MIC determined using Staphylococcus aureus, USA 300 wherein ClpP is inactivated, thus allowing confirmation that killing is via a ClpP-dependent pathway.
Minimal inhibitory concentrations (“MICs”) were determined using the microbroth dilution method according to Clinical Laboratory Standards Institute (CLSI; National, C.F. C. L. S., Methods for Dilution Antimicrobial Susceptibility Tests for Bacteria Grow aerobically-Seventh Edition: Approved Standard M7-A7, CLSI, Wayne, Pa., USA, 2008) and were read by visual inspection. Two fold serial dilutions of test compound in 100 μL of the appropriate broth media were first prepared in 96-well round bottom microtiter plates (Nalgene Nunc International, Rochester, N.Y., USA). […] After incubations, in all cases the MIC was recorded as the lowest concentration of drug that prevented bacterial growth. The bacterial strains for which MIC was determined as described in Table 4.

SMILES	Minimal Inhibitory Concentrations S. aureus USA 300 ΔClpP
C[C@H]1CC2C(=O)O[C@@H](C)[C@H](NC(=O)[C@H](Cc3cc(F)cc(F)c3)NC(=O)Nc3ccc(OC(F)(F)F)cc3)C(=O)N3CCCC3C(=O)N(C)[C@@H](C)C(=O)N[C@@H](C)C(=O)N2C1 (stereo partly drawn) [Compound 28, (2S)-3-(3,5-difluorophenyl)-N-((2S,6S,9S,11aS,17S,18S)-2,6,9,10,18-pentamethyl-5,8,11,16,20-pentaoxohexadecahydro-1H,5H,16H-dipyrrolo[2,1-c:2′,1′-l][1]oxa[4,7,10,13]tetraazacyclohexadecin-17-yl)-2-(3-(4-(trifluoromethoxy)phenyl)ureido)propanamide] ({NH(4-OCF3-phenyl)-CO}-[Phe(3,5-F2)][aThr][ξP][NMeA]A[ξPro(4S-Me)]; ester 2-C)	25 µM
Cc1ccc(NC(=O)N[C@@H](Cc2cc(F)cc(F)c2)C(=O)N[C@@H]2C(=O)N3C[C@H](O)C[C@H]3C(=O)N3CCOC[C@H]3C(=O)N[C@@H](C)C(=O)N3C[C@H](C)C[C@H]3C(=O)O[C@H]2C)cc1C [Compound 215, (S)-3-(3,5-difluorophenyl)-2-(3-(3,4-dimethylphenyl)ureido)-N-((6aS,8R,12S,13S,15aS,17R,21S,23aS)-8-hydroxy-13,17,21-trimethyl-6,11,15,20,23-pentaoxooctadecahydro-6H,11H,15H-[1,4]oxazino[3,4-i]dipyrrolo[2,1-c:2′,1′-l][1]oxa[4,7,10,13]tetraazacyclohexadecin-12-yl)propanamide] ({NH(3,4-Me2-phenyl)-CO}-[Phe(3,5-F2)][aThr][Hyp][Morpholine(3S-CO)]A[Pro(4R-Me)]; ester 2-C)	>200 µM
C[C@@H]1C[C@H]2C(=O)OC[C@H](NC(=O)[C@H](Cc3cc(F)cc(F)c3)NC(=O)Nc3ccc4c(c3)OCO4)C(=O)N3C[C@H](O)C[C@H]3C(=O)N3CCOC[C@H]3C(=O)N[C@@H](C)C(=O)N2C1 [Compound 318, (S)-2-(3-(benzo[d][1,3]dioxol-5-yl)ureido)-3-(3,5-difluorophenyl)-N-((6aS,8R,12S,15aS,17R,21S,23aS)-8-hydroxy-17,21-dimethyl-6,11,15,20,23-pentaoxooctadecahydro-6H,11H,15H-[1,4]oxazino[3,4-i]dipyrrolo[2,1-c:2′,1′-l][1]oxa[4,7,10,13]tetraazacyclo-hexadecin-12-yl)propanamide] ({NH(1,3-benzodioxol-5-yl)-CO}-[Phe(3,5-F2)]S[Hyp][Morpholine(3S-CO)]A[Pro(4R-Me)]; ester 2-C)	100 µM
